Library screen at single concentrations

By UniProt entry, the sequences of proteins in these tests, tags left out. Residues count along the entry.
UniProt P9WFT3, whole entry: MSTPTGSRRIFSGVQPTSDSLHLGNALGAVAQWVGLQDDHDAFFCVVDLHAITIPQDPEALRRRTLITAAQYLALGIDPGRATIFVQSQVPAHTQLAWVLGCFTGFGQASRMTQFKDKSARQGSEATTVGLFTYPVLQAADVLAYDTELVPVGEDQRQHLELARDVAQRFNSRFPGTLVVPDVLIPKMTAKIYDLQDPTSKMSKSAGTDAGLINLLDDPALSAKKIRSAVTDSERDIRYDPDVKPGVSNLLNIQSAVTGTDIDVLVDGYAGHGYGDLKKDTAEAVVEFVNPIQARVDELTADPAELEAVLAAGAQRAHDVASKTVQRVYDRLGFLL
UniProt I6X8D2, whole entry: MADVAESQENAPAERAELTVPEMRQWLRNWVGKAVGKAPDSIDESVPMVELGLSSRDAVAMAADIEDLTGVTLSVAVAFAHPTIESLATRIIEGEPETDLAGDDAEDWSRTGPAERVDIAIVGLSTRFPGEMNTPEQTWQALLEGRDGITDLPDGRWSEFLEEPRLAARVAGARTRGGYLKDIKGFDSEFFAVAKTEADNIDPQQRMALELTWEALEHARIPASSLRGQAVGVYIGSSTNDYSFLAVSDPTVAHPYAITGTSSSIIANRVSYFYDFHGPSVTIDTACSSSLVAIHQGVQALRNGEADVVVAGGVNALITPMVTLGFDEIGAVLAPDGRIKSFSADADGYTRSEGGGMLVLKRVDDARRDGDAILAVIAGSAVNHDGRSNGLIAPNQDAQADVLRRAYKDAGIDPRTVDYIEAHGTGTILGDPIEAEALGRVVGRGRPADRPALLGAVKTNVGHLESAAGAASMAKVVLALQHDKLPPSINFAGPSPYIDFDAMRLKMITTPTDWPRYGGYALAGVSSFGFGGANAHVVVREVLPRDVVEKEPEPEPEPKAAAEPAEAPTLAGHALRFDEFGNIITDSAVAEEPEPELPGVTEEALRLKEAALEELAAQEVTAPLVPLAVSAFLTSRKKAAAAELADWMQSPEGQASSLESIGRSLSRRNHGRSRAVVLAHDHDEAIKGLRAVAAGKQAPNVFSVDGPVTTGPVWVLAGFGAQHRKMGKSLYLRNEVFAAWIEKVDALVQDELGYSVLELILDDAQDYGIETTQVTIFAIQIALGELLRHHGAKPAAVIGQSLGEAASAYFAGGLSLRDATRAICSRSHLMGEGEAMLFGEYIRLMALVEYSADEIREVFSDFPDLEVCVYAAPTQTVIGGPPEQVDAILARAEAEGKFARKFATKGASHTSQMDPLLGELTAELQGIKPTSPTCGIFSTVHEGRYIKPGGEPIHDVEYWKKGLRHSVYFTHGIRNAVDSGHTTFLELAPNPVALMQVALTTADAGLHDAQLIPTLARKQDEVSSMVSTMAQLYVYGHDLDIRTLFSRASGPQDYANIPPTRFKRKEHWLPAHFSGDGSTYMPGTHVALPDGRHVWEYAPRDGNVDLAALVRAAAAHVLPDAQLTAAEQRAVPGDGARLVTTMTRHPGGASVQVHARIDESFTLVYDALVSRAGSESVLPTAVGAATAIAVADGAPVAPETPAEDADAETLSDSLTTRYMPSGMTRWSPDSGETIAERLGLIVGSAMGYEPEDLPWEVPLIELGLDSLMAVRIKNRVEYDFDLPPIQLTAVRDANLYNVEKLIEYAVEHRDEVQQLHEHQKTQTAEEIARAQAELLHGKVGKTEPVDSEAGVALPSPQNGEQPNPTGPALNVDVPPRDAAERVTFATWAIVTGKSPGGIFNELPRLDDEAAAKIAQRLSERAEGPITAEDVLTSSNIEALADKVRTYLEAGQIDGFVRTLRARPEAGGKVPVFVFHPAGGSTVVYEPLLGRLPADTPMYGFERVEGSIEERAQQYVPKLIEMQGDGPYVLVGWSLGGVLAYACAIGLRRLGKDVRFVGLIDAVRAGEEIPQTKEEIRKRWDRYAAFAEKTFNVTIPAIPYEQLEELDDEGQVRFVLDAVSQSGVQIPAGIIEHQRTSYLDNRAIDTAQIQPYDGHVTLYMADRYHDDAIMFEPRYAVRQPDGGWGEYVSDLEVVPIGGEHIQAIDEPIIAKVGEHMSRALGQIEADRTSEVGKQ
UniProt A4I591, 1-473: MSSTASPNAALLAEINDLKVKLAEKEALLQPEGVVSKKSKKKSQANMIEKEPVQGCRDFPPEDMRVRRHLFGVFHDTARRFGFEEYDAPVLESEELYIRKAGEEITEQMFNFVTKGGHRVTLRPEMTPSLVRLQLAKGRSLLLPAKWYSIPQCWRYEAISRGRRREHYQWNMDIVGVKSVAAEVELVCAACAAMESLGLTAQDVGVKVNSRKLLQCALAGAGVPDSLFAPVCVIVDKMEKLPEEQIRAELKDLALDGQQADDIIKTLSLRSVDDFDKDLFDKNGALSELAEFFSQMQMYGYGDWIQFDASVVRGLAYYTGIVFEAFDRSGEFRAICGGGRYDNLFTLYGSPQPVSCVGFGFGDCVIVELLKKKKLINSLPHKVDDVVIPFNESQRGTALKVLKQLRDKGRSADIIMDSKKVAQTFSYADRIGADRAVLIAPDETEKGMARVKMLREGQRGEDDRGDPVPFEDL
UniProt Q4DA54, 1-478: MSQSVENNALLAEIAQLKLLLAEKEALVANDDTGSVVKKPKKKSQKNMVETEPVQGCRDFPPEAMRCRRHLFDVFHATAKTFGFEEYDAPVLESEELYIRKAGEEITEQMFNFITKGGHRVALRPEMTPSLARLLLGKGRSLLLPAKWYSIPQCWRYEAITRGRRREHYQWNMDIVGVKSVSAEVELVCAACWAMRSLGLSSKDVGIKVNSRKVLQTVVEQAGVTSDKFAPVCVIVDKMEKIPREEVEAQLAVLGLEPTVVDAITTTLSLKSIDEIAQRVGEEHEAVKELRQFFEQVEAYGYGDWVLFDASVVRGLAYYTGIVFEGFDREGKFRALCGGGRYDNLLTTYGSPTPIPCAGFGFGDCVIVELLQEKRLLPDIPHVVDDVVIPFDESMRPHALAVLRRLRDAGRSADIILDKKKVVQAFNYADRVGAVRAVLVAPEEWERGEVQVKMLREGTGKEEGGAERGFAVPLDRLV

Data taken from ChEMBL document CHEMBL3988442, “University of Dundee, Small-Polar-MMV Screening Library” (2021).

A: 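Tryptophan-tRNA ligase, Mycobacterium tuberculosis (UniProt P9WFT3). Enzyme assay of tryptophanyl-tRNA synthetase; the read-out is not stated. Concentration: 10 µM. Direction is not recorded; retested compounds ran higher, which suggests that high means inhibition. Of about 65,000 compounds tested this way, about 64 (0.098%) reached 50% or more in at least one test.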
B: 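Enzyme assay of the thioesterase domain of polyketide synthase 13; the read-out is not stated. Target: Polyketide synthase Pks13, Mycobacterium tuberculosis (UniProt I6X8D2). Compounds at 30 µM. Higher reads as stronger inhibition (inferred from which compounds were picked for retests). Size under these conditions: about 67,000 compounds, about 300 of them at 50% or above in at least one test.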
C: 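Enzyme assay of histidyl-tRNA synthetase; the read-out is not stated. Target: Histidine-tRNA ligase, Leishmania infantum (UniProt A4I591). Compounds at 30 µM. Higher reads as stronger inhibition (inferred: compounds with an IC50 in retests scored well above the rest). The assay is labelled LdHisRS but filed under L. infantum. Size under these conditions: about 69,000 compounds, about 410 of them at 50% or above in at least one test.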
D: 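Enzyme assay of histidyl-tRNA synthetase; the read-out is not stated. Target: Histidine-tRNA ligase, Trypanosoma cruzi CL Brener (UniProt Q4DA54). Tested at 30 µM. Higher reads as stronger inhibition (inferred: compounds with an IC50 in retests scored well above the rest). Of about 69,000 compounds tested this way, about 31 (0.045%) reached 50% or more in at least one test.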

Results are given as percent effect. The record does not define 0% and 100%; most values in the screen are far below 50% and negative numbers occur (in some assays of this library far below -100). The compounds are a random part of those screened. A dash means the value is not listed here; it may have been measured.

| structure | A | B | C | D |
|---|---|---|---|---|
| `Cc1noc(C)c1CN1C(=O)[C@H]2CC[C@@H]1CN(C(=O)c1cscn1)C2` | -2.472 | -19.84 | 18.18 | 2.424 |
| `Clc1ccc(N2CCC(OCC3CCCCO3)CC2)nc1` (centres undefined) | -3.401 | 23.2 | 8.85 | 4.464 |
| `CC(C)N1CCC2(CC1)NC(=O)c1cc(Br)ccc1-n1nnnc12` | -0.5913 | -8.693 | 15.04 | 0.4425 |
| `COCCNC(=O)[C@@H]1CN(c2cc(OC)ncn2)C[C@H]2OCC[C@H]21` | 2.102 | 4.284 | 20.97 | 0.8772 |
| `Cc1noc(C2CCC3(CCN(C(=O)c4c(C)noc4C)CC3)O2)n1` (centres undefined) | -2.012 | -25.52 | 24.53 | 0 |
| `CCn1ncc(CN2CCCC(C(=O)c3ccc(Cl)cc3)C2)c1C` (centres undefined) | -3.763 | 7.09 | 14.17 | -4.831 |
| `CC(=O)N1CCc2nc(N3CCCC3)nc(C)c2C1` | -1.99 | -7.757 | 19.27 | 3.365 |
| `CN1CCC(NC(=O)c2cc(F)cc(Cl)c2O)C1=O` (centres undefined) | 4.088 | 53.96 | 20 | 9.045 |
| `Cc1c(CN2Cc3nccn3CC2c2ccccc2)cnn1C` (centres undefined) | -2.676 | 6.418 | 5.594 | 2.825 |
| `COCCN1C[C@@H]2CN(Cc3ccsc3)CCC[C@]2(C(=O)O)C1` | 4.741 | - | 18.45 | 1.087 |
| `Cn1nnc2c1CCN(Cc1ccco1)C2COCc1ccccc1` (centres undefined) | 11.43 | 11.72 | 8.772 | 7.65 |
| `Cc1nc(COC[C@H]2CCC[C@]23CN(CC2CC2)CCO3)cs1` | -1.146 | -15.98 | 13.76 | 0.8403 |
| `COCCC(=O)N1CCCC1c1nc(C)c2c(n1)N(C)C(=O)CC2` (centres undefined) | -3.125 | 11.44 | 11.51 | 6.513 |
| `CCN1C(=O)CCC12CCN(S(=O)(=O)c1ccccc1)CC2` | 3.961 | - | 17.48 | -2.913 |
| `CC(C)NC(=O)C(NC(=O)N1CCN(c2ccc(Cl)cc2)CC1)C(C)C` (centres undefined) | 4.821 | -34.54 | 25.97 | 4.848 |
| `CCOc1ccccc1C1=CCN(C(=O)C2CCN(C)C(=O)C2)CC1` (centres undefined) | 19.3 | -19.13 | 18.75 | 10.4 |
| `Cc1cc(N2CCCCC2)c(C#N)c(C)n1` | -0.7597 | -12.65 | 4.505 | 6.667 |
| `CC(=O)NCCCOc1c(C)cccc1Cl` | -2.249 | -27.64 | 9.375 | 1.064 |
| `CCn1cc(S(=O)(=O)N2CCC(C)Sc3ccccc32)cn1` (centres undefined) | -2.388 | -17.02 | 8.219 | 5.263 |
| `CCOc1ccccc1CNC(=O)Cn1ccc2c(C)nn(C)c2c1=O` | 0.7776 | -0.9222 | 14.13 | 1.98 |
| `CCC(C)(NCc1ncc(C(C)C)o1)c1nccs1` (centres undefined) | -6.507 | -38.8 | 13.79 | -4.712 |
| `O=C(CCn1cnc2cc(F)c(F)cc21)N1CCN(C2CC2)CC1` | 5.384 | -13.65 | 21.43 | -5.263 |
| `N#CC1CCN(C(=O)NCCc2ccc(Cl)s2)CC1` | -2.684 | -14.56 | 16.52 | 3.38 |
| `c1cn(-c2cncc(C3CCNCC3)n2)cn1` | 1.101 | -6.84 | 3.158 | 2.985 |
| `CCN(CC)C(=O)CN(C)CCn1nc2ccccn2c1=O` | -0.4122 | -8.83 | 11.7 | 10.05 |
| `CN(C)CCNc1cc(-c2ccccc2C(N)=O)c2cc[nH]c2n1` | -3.003 | 11.41 | 4.839 | -1.754 |
| `COc1ccc(C[C@H]2CN(c3cc(OC)ncn3)CC[C@H]2OC)cc1` | 5.855 | -9.261 | 30.56 | 1.493 |
| `COc1ccc(C)cc1C(C)NC(=O)Cn1ccc(=O)n(C)c1=O` (centres undefined) | 1.193 | -15.74 | 13.68 | 4.843 |
| `O=C(NCC1CCCO1)C1CCN(Cc2nc(C3CC3)no2)CC1` (centres undefined) | 4.224 | -20.52 | 16.67 | 6.329 |
| `Cc1nc2c(c(N(C)CC3Cc4ccccc4CN3C)n1)CCNCC2` (centres undefined) | 10.08 | 13.86 | 23.68 | 7.263 |
| `CC1CN(C(=O)c2ccnc(-n3cncn3)c2)c2ccccc2S1` (centres undefined) | -5.374 | - | 3.896 | 3.448 |
| `CN(Cc1cnn(C)c1)C(=O)CN1CCCC1Cn1cncn1` (centres undefined) | 0.2863 | 11.55 | 18.28 | 13.69 |
| `CC(C)C(=O)N1CCN(CC(O)c2cc(Cl)ccc2Cl)CC1` (centres undefined) | 4.586 | 21.51 | 9.859 | 0.5525 |
| `O=C1NCCCc2[nH]c(Cc3ccc(F)cc3)nc21` | 1.372 | -31.64 | 21.37 | 5.556 |
| `COc1ccc(CN(C)[C@@H]2CN(C(=O)c3ccccc3)C[C@H]2O)cc1` | - | 4.861 | 7.292 | -27.66 |
| `O=C(Cc1ccccc1)N1CCC2(CC1)COCCN2CC1CC1` | 1.299 | -4.871 | 15.6 | 12.61 |
| `Cc1ccc(O[C@@H]2C[C@H]3CN(c4ncc(F)cn4)CCN3C2)cc1` | - | 1.322 | 15.38 | 9.497 |
| `CCN(CC)CCCNc1nc(C)nc2c1CCN(C)C2` | -0.1382 | 4.413 | 15.94 | 9.848 |
| `Cc1cc(C(=O)N2CCc3ncc(CN4CCCCC4)n3CC2)no1` | 3.189 | -45.43 | 2 | 2.062 |
| `CC(=O)NCc1nccnc1C1CCN(C(=O)c2cc[nH]n2)CC1` | -3.329 | -0.1659 | 14.08 | 5.385 |
| `O=C(c1ccccc1F)N1C[C@@H]2COC[C@]2(COCc2cccnc2)C1` | -5.498 | -2.763 | 0.885 | 5.376 |
| `Cc1ccc(NC(=O)CNC(C)CN2CCCCC2)c(F)c1` (centres undefined) | 4.562 | -26.61 | 25.64 | -1.685 |
| `CCCc1cncnc1N1CCC(NCc2ccc(O)cc2)CC1` | -1.554 | 1.473 | 14.47 | 2.463 |
| `Cc1oc(C(C)C)cc1C(=O)N1C[C@H]2CC[C@@H]1CN(C(=O)N(C)C)C2` | -1.274 | -5.268 | 17.11 | 5.435 |
| `CC(=O)Oc1ccnc(C(F)(F)F)c1C(C)=O` | -4.856 | -15.22 | 11.76 | 5.82 |
| `CCC(=O)Nc1nnc(CCOc2cccc(OC)c2)s1` | -3.216 | -37.54 | 1.942 | 3.825 |
| `CC(OCC(F)(F)F)C(=O)Nc1ccc(-n2cncn2)nc1` (centres undefined) | -7.584 | -3.752 | 13.33 | -2.642 |
| `Cc1c(F)cccc1S(=O)(=O)NCC(C)(C)CC(C)O` (centres undefined) | -2.676 | -27.84 | 17.65 | 7.937 |
| `O=C(C1CCOC1)N1C[C@@H]2CCN(C(=O)c3cscn3)[C@@H]2C1` (some centres undefined) | - | -23.01 | -158.5 | -75.56 |
| `Cc1cc(C)n(C2CN(C(=O)CN3C(=O)CSc4ccccc43)C2)n1` | 0.5128 | -11.28 | 12.9 | 6.173 |
| `CCc1ncc(C(=O)N(CCOC)Cc2ccccc2F)cn1` | -4.93 | -4.153 | 1.075 | 5.759 |
| `CC(C)c1noc(-c2ccc(NCC3CCCOC3)nc2)n1` (centres undefined) | -4.204 | 12.53 | 1.613 | 0.8772 |
| `O=C(C1CCC1)N1CCCn2nc(CNc3ncccn3)cc2C1` | 1.826 | -17.12 | 20.21 | 4.02 |
| `CN1CCOC(CN(C(=O)CC2CCCC2)c2nccs2)C1` (centres undefined) | -4.956 | 0.7554 | -12.31 | 2.682 |
| `CCc1ccccc1OC1CN(CC2CCOC2)C1` (centres undefined) | 0.3846 | -28.97 | 17.2 | 3.704 |
| `c1csc(CN2CCC3(COCCN(CC4CC4)C3)C2)n1` (centres undefined) | -4.158 | -47.9 | 7.018 | 4.301 |
| `CCOC(=O)COC1CCN(C(C)=O)CC(=O)N(C)c2ccccc21` (centres undefined) | - | 5.78 | 18.37 | 6.742 |
| `Cc1oncc1C(=O)N1CC[C@@H]2[C@@H]1CC(=O)N2Cc1cccnc1` | - | 10.18 | 15.09 | 5.556 |

For reference, 6 entries once more:

For Cc1c(CN2Cc3nccn3CC2c2ccccc2)cnn1C (centres undefined) the result was A: -2.676%; B: 6.418%; C: 5.594%; D: 2.825%.
For Cc1cc(C)n(C2CN(C(=O)CN3C(=O)CSc4ccccc43)C2)n1 the result was A: 0.5128%; B: -11.28%; C: 12.9%; D: 6.173%.
For CC1CN(C(=O)c2ccnc(-n3cncn3)c2)c2ccccc2S1 (centres undefined) the result was A: -5.374%; C: 3.896%; D: 3.448%.
For c1cn(-c2cncc(C3CCNCC3)n2)cn1 the result was A: 1.101%; B: -6.84%; C: 3.158%; D: 2.985%.
For O=C(C1CCOC1)N1C[C@@H]2CCN(C(=O)c3cscn3)[C@@H]2C1 (some centres undefined) the result was B: -23.01%; C: -158.5%; D: -75.56%.
For Cc1nc(COC[C@H]2CCC[C@]23CN(CC2CC2)CCO3)cs1 the result was A: -1.146%; B: -15.98%; C: 13.76%; D: 0.8403%.